Measured values reported in the supplement of paper PMC10849652.
The list shows a part of the results.

Protein sequences, listed by entry. Tags and fused reporters are not part of them. Lines headed by an entry give the natural chain unless they say otherwise; changes in a name come on top.
UniProt Q86Y39, whole entry, looked up: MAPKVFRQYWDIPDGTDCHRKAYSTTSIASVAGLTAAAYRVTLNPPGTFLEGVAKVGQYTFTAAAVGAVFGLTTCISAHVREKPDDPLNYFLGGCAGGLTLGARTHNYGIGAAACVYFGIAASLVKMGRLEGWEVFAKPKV
UniProt Q7L592: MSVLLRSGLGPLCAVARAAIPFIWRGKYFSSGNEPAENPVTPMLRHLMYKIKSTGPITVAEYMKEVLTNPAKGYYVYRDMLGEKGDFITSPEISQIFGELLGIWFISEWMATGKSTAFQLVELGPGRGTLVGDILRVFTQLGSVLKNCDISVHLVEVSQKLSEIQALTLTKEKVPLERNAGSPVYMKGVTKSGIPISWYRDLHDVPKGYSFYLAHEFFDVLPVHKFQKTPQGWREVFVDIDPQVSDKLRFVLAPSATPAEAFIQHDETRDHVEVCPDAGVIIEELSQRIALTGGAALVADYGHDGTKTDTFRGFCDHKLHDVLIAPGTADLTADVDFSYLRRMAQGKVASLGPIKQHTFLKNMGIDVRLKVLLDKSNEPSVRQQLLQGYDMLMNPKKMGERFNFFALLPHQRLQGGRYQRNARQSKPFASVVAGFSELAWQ
UniProt O75323: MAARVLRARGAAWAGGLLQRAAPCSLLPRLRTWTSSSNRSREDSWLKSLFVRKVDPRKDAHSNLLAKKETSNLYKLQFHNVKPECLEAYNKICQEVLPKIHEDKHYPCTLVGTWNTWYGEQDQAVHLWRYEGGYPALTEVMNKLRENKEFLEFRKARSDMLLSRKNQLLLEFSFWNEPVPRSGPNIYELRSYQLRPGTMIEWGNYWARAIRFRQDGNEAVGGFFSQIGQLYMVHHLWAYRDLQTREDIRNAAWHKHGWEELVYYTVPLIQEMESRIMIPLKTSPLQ
UniProt O95298, whole entry, looked up: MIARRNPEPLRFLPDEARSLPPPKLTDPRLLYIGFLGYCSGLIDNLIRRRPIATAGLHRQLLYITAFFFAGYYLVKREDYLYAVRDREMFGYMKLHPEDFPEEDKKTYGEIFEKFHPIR
UniProt Q9UMS0: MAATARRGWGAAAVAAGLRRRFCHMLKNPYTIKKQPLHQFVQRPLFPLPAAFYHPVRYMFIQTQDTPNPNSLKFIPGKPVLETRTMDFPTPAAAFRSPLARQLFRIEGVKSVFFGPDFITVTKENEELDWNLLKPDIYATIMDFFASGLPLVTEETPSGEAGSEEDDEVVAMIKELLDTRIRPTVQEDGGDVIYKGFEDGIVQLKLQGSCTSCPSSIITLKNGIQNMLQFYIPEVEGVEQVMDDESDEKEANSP
UniProt P17568, whole entry, looked up: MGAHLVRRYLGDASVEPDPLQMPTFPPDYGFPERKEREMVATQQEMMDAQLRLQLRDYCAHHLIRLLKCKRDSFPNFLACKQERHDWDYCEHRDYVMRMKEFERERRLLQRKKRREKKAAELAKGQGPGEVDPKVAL
UniProt P56181: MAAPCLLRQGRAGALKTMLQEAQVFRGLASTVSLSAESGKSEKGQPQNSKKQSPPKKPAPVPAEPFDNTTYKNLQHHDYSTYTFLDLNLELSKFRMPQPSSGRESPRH
UniProt Q6ZNB6: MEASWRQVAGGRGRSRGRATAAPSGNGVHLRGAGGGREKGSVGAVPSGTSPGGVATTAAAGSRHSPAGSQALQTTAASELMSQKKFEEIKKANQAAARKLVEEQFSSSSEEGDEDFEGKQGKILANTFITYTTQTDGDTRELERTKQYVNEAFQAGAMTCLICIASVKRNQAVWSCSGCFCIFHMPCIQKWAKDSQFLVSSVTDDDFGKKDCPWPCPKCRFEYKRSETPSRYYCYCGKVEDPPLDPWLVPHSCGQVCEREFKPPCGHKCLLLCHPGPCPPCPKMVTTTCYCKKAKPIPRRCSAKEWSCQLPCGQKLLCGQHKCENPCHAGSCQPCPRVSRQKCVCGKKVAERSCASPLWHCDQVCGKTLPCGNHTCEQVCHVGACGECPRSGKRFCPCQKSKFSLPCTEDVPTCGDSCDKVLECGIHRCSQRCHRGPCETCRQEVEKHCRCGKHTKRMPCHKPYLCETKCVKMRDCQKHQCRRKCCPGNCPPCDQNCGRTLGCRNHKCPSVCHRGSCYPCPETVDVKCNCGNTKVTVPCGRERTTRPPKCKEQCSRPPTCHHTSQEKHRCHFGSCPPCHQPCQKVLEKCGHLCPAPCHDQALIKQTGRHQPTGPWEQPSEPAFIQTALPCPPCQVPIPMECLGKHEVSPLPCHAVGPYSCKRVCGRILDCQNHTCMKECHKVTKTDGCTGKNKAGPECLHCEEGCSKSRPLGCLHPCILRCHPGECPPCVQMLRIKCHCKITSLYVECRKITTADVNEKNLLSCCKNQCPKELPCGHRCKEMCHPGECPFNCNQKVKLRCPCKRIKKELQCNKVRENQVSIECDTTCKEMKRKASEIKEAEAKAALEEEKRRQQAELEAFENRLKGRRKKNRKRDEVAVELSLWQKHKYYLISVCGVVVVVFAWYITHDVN
UniProt O60524: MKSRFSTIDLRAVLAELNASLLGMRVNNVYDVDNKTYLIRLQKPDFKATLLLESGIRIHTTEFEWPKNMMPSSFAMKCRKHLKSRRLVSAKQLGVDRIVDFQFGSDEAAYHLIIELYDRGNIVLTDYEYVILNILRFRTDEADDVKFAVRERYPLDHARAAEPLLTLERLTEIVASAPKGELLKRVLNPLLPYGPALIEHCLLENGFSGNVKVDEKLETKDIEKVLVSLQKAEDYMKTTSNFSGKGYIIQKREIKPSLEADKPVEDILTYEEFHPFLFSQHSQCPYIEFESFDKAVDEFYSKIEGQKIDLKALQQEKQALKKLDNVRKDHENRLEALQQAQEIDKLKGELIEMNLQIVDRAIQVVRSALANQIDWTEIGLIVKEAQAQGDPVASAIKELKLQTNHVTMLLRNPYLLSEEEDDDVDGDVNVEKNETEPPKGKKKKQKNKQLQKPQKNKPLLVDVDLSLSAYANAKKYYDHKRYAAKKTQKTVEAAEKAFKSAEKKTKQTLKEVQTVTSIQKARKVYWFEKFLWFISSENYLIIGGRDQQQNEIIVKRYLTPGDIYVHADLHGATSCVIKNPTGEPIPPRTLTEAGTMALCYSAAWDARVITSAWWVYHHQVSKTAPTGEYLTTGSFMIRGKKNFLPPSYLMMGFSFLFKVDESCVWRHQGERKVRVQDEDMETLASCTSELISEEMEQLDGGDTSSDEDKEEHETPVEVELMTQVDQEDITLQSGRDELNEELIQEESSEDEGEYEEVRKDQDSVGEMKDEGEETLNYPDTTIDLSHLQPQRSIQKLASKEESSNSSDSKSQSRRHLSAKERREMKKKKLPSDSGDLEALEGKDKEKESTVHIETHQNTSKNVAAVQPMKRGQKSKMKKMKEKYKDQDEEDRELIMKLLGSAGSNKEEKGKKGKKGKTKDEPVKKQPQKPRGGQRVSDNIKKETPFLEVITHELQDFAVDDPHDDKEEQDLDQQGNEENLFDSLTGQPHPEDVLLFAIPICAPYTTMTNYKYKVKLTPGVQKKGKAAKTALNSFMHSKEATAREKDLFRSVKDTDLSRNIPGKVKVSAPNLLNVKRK
UniProt O95299, whole entry, looked up: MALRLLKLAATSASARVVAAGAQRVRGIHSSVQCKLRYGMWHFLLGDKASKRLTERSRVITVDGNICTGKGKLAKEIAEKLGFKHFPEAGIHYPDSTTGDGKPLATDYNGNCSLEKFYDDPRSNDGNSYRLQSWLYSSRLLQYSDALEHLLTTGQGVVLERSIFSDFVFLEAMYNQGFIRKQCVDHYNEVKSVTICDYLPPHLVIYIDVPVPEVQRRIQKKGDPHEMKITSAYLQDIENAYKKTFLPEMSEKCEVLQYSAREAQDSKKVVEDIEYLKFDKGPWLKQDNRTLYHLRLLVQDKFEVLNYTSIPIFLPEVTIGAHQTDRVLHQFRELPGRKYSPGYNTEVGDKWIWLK
UniProt O94916: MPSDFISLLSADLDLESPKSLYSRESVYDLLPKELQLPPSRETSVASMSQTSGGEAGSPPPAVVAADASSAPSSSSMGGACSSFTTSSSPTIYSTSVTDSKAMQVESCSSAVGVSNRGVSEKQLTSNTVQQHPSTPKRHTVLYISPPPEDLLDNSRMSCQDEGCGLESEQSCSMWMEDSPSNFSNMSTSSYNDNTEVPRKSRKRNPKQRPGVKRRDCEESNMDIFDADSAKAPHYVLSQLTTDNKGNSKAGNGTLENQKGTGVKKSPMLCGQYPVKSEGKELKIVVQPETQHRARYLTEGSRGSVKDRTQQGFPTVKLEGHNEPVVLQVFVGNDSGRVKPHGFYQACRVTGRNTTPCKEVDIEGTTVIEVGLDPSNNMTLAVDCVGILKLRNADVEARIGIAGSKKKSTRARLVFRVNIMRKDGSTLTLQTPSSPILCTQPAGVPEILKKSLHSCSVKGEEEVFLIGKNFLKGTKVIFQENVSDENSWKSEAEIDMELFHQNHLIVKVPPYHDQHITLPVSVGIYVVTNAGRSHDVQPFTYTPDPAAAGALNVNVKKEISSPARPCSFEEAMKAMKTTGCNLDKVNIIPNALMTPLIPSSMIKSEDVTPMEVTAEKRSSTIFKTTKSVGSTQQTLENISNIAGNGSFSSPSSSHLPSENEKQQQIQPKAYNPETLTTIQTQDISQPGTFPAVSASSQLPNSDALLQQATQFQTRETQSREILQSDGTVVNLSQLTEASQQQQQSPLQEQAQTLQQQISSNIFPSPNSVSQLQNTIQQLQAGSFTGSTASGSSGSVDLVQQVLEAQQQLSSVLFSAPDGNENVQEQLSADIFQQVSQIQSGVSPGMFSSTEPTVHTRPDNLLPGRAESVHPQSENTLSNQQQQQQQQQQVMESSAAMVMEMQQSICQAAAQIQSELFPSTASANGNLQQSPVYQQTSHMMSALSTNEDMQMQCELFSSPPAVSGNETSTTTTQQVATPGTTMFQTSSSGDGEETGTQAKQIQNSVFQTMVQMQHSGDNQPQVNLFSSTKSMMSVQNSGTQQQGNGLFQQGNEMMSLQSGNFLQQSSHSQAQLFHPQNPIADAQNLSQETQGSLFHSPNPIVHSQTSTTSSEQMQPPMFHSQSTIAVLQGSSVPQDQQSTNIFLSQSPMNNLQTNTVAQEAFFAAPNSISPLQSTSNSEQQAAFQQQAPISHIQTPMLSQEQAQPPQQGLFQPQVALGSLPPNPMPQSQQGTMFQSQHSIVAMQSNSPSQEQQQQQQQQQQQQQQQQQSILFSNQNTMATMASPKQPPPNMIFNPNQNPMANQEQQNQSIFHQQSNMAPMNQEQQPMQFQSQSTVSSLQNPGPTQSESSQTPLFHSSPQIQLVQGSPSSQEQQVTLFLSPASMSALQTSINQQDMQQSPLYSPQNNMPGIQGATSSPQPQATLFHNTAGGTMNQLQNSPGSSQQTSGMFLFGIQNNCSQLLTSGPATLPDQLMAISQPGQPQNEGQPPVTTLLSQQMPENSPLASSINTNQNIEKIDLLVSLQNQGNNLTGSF
UniProt P52849: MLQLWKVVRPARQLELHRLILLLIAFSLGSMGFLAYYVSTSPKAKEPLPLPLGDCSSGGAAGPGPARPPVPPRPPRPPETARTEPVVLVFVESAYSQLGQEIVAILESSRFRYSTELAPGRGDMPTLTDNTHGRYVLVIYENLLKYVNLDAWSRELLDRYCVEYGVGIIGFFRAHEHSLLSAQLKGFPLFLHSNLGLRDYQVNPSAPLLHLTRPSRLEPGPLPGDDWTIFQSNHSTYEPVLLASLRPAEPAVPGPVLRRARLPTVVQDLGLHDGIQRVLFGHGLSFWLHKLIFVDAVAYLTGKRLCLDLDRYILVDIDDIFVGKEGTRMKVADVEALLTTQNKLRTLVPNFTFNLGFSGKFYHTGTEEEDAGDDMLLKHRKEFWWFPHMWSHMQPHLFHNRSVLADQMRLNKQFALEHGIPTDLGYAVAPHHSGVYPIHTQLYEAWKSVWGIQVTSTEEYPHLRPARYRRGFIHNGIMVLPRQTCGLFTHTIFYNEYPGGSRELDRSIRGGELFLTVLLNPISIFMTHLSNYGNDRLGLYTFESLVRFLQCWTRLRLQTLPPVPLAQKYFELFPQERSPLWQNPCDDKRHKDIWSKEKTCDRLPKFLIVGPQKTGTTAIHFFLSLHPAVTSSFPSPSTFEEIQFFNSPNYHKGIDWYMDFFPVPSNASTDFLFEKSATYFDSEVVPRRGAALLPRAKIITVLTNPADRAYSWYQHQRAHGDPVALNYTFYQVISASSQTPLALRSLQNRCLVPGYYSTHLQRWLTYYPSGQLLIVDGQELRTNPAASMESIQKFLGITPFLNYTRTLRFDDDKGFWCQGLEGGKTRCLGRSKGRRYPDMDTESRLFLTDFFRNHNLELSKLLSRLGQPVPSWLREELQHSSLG
UniProt Q9UMX5: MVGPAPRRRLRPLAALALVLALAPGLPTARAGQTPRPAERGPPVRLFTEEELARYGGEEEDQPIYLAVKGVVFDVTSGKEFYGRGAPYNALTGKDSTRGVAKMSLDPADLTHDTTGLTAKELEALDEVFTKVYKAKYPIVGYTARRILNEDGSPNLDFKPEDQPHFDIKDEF

What was measured:
Assay in all cases: log2 fold change, soluble protein after heating vs DMSO (PISA); higher = thermal stabilisation; K562 lysate, 10 uM; active = over 0.2 and 3.5 SD of the protein, either way, in both replicates (recomputed)
erlotinib = compound: C#Cc1cccc(Nc2ncnc3cc(OCCOC)c(OCCOC)cc23)c1 [erlotinib]
Outline: (§1)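 K562 pellets were dounce-homogenised in PBS pH 7.4 with 1 mM MgCl2, and the crude extract at 1 mg/mL protein was treated with 10 μM compound for 30 min. Aliquots were heated for 3 min across 48°C-58°C, pooled, and brought to 0.5% NP-40 at 4°C; soluble protein was the supernatant after 21,000xg for 90 min. Soluble protein was quantified by TMTpro 16plex LC-MS/MS with channel sums equalised, and reported as log2 fold change in thermal stability against DMSO controls, with values from duplicates.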

[1] = compound: C/C(=N\NC(=O)C1=CC(=CC=C1)S(=O)(=O)N2CCOCC2)/C3=C(C=CC(=C3)Cl)O
Outline: as §1

[2] = compound: C1=CC(=CC=C1C2=NC3=C(N2)C=C(C=C3)C(=O)N)OC4=CC=C(C=C4)Cl
Outline: as §1

[3] = compound: C1=CC2=C(C=CC(=C2)/C=C\3/C(=O)NC(=NCC4=CC=CS4)S3)N=C1
Outline: as §1

[4] = compound: C1=CC2=NC=CN=C2C=C1/C=C/3\C(=O)NC(=O)S3
Outline: as §1

[5] = compound: C1=CC=C(C=C1)C2=NC(=C(N2)C3=CC=NC=C3)C4=CC(=C(C=C4)Cl)O
Outline: as §1

[6] = compound: C1=CC=C2C(=C1)C3=NNC4=CC=CC(=C43)C2=O
Outline: as §1

[7] = compound: C1CCN(C1)C(=O)NC2=CC=CC(=C2)NC3=NC=C(C(=N3)NCCC4=CN=CN4)Br
Outline: as §1

[8] = compound: C1CN(CCC1(CC2=CC=C(C=C2)Cl)N)C3=NC=NC4=C3C=CN4
Outline: as §1

IRAK-1-4 Inhibitor I = compound: C1COCCN1CCN2C3=CC=CC=C3N=C2NC(=O)C4=CC(=CC=C4)[N+](=O)[O-] [IRAK-1-4 Inhibitor I]
Outline: as §1

ibrutinib = compound: C=CC(=O)N1CCC[C@@H](n2nc(-c3ccc(Oc4ccccc4)cc3)c3c(N)ncnc32)C1 [ibrutinib]
Outline: as §1

[9] = compound: CC(=O)c1cnc2ccc(-c3cc(Cl)c(O)c(Cl)c3)nc2c1N[C@H]1CC[C@H](CN(C)C)CC1
Outline: as §1

ralimetinib = compound: CC(C)(C)Cn1c(N)nc2ccc(-c3[nH]c(C(C)(C)C)nc3-c3ccc(F)cc3)nc21 [ralimetinib]
Outline: as §1

[10] = compound: CC(C)(O)CC(=O)NCCn1ccc2ncnc(Nc3ccc(Oc4cccc(C(F)(F)F)c4)c(Cl)c3)c21
Outline: as §1

[11] = compound: CC(C)C1=C2N=C(C=C(N2N=C1)NCC3=CC=CC=C3)NCCCCCCN
Outline: as §1

[12] = compound: CC1=C(C(CC(=O)N1)C2=CC=C(C=C2)C(F)(F)F)C(=O)NC3=C(C=C4C(=C3)C=NN4)F
Outline: as §1

[13] = compound: CC1=C(C2=C(C=C1)C(=O)C3=CC=CC=C3N2CCCN)C
Outline: as §1

[14] = compound: CC1=C(C=C(C=C1)NC(=O)C2=CC(=CC=C2)C(C)(C)C#N)NC3=CC4=C(C=C3)N=CN(C4=O)C
Outline: as §1

[15] = compound: CC1=C(C=C(C=C1)NC(=O)C2=CC(=CC=C2)N(C)C)NC(=O)C3=CC=C(C=C3)O
Outline: as §1

[16] = compound: CC1=CC=C(C=C1)SC2=C3C=C(SC3=CN=C2)C(=O)N
Outline: as §1

Measured: log2 fold change

NDUFA11 (UniProt Q86Y39)
inactive: erlotinib 0.032 | [1] -0.085 | [2] -0.056 | [3] -0.074 | [4] -0.007 | [5] -0.043 | [6] -0.003 | [7] -0.009 | [8] -0.032 | IRAK-1-4 Inhibitor I -0.035 | ibrutinib 0.004 | [9] -0.011 | ralimetinib 0.033 | [10] -0.019 | [11] -0.035 | [12] -0.017 | [13] -0.002 | [14] 0.011 | [15] -0.081 | [16] 0.005

NDUFAF7 (UniProt Q7L592)
inactive: erlotinib -0.076 | [1] -0.03 | [2] 0.04 | [3] 0.03 | [4] 0.072 | [5] -0.022 | [6] -0.006 | [7] -0.021 | [8] 0.049 | IRAK-1-4 Inhibitor I 0.028 | ibrutinib -0.017 | [9] 0.046 | ralimetinib 0.047 | [10] -0.027 | [11] -0.077 | [12] 0.026 | [13] 0.013 | [14] 0.023 | [15] -0.005 | [16] 0.012

NIPSNAP2 (UniProt O75323)
inactive: erlotinib -0.031 | [1] 0.041 | [2] -0.073 | [3] -0.035 | [4] 0.063 | [5] -0.049 | [6] -0.033 | [7] -0.003 | [8] 0.011 | IRAK-1-4 Inhibitor I -0.025 | ibrutinib -0.013 | [9] -0.011 | ralimetinib 0.069 | [10] 0.027 | [11] 0.064 | [12] -0.006 | [13] -0.021 | [14] -0.007 | [15] 0.054 | [16] 0.02

NDUFC2 (UniProt O95298)
inactive: erlotinib 0.013 | [1] -0.065 | [2] -0.029 | [3] 0.027 | [4] -0.019 | [5] -0.017 | [6] -0.088 | [7] -0.058 | [8] 0.097 | IRAK-1-4 Inhibitor I -0.004 | ibrutinib 0.011 | [9] -0.033 | ralimetinib -0.037 | [10] 0.001 | [11] 0.059 | [12] -0.002 | [13] -0.022 | [14] -0.053 | [15] -0.024 | [16] 0.022

NFU1 (UniProt Q9UMS0)
inactive: erlotinib -0.01 | [1] 0.027 | [2] 0.03 | [3] -0.02 | [4] -0.046 | [5] 0.003 | [6] 0.004 | [7] 0.041 | [8] 0.014 | IRAK-1-4 Inhibitor I -0.002 | ibrutinib 0.143 | [9] 0.003 | ralimetinib -0.085 | [10] -0.033 | [11] 0.007 | [12] -0.021 | [13] 0.014 | [14] -0.004 | [15] -0.065 | [16] 0.016

Fetched one by one from the entries so far (two):
NFU1 (UniProt Q9UMS0)
inactive: erlotinib -0.01 | [1] 0.027 | [2] 0.03 | [3] -0.02 | [4] -0.046 | [5] 0.003 | [6] 0.004 | [7] 0.041 | [8] 0.014 | IRAK-1-4 Inhibitor I -0.002 | ibrutinib 0.143 | [9] 0.003 | ralimetinib -0.085 | [10] -0.033 | [11] 0.007 | [12] -0.021 | [13] 0.014 | [14] -0.004 | [15] -0.065 | [16] 0.016

NDUFA11 (UniProt Q86Y39)
inactive: erlotinib 0.032 | [1] -0.085 | [2] -0.056 | [3] -0.074 | [4] -0.007 | [5] -0.043 | [6] -0.003 | [7] -0.009 | [8] -0.032 | IRAK-1-4 Inhibitor I -0.035 | ibrutinib 0.004 | [9] -0.011 | ralimetinib 0.033 | [10] -0.019 | [11] -0.035 | [12] -0.017 | [13] -0.002 | [14] 0.011 | [15] -0.081 | [16] 0.005

(cont.)

NDUFB7 (UniProt P17568)
inactive: erlotinib -0.03 | [1] -0.078 | [2] -0.031 | [3] -0.058 | [4] -0.017 | [5] 0 | [6] 0.05 | [7] 0.041 | [8] -0.085 | IRAK-1-4 Inhibitor I 0.076 | ibrutinib 0.023 | [9] -0.025 | ralimetinib 0.017 | [10] -0.042 | [11] 0.014 | [12] 0.052 | [13] -0.004 | [14] -0.004 | [15] 0.03 | [16] 0.006

NIPA2 (UniProt Q8N8Q9)
inactive: erlotinib -0.102 | [1] 0.02 | [2] 0.035 | [3] 0.091 | [4] -0.007 | [5] 0 | [6] -0.069 | [7] -0.089 | [8] 0.079 | IRAK-1-4 Inhibitor I -0.088 | ibrutinib 0.149 | [9] -0.021 | ralimetinib 0.055 | [10] -0.048 | [11] 0.044 | [12] -0.057 | [13] -0.062 | [14] 0.021 | [15] -0.093 | [16] -0.054

NDUFV3 (UniProt P56181)
inactive: erlotinib 0 | [1] -0.103 | [2] 0.094 | [3] 0.002 | [4] -0.068 | [5] 0.038 | [6] 0.02 | [7] -0.004 | [8] -0.006 | IRAK-1-4 Inhibitor I 0.006 | ibrutinib 0.13 | [9] -0.056 | ralimetinib 0.001 | [10] -0.035 | [11] 0.017 | [12] 0 | [13] -0.028 | [14] -0.026 | [15] 0.025 | [16] -0.085

NFXL1 (UniProt Q6ZNB6)
inactive: erlotinib 0.024 | [1] 0.019 | [2] 0.077 | [3] 0.025 | [4] 0.019 | [5] -0.033 | [6] -0.188 | [7] -0.03 | [8] 0.062 | IRAK-1-4 Inhibitor I -0.057 | ibrutinib -0.021 | [9] -0.019 | ralimetinib 0.008 | [10] -0.007 | [11] 0.039 | [12] 0.029 | [13] 0.018 | [14] 0.026 | [15] 0.026 | [16] 0.031

NEMF (UniProt O60524)
inactive: erlotinib 0.01 | [1] 0.036 | [2] -0.046 | [3] 0.009 | [4] -0.025 | [5] 0.017 | [6] 0.004 | [7] 0.015 | [8] -0.009 | IRAK-1-4 Inhibitor I 0 | ibrutinib 0.003 | [9] 0.006 | ralimetinib 0.003 | [10] -0.02 | [11] -0.026 | [12] 0.009 | [13] -0.046 | [14] 0.001 | [15] 0.023 | [16] 0.028

NDUFB10 (UniProt O96000)
inactive: erlotinib 0 | [1] -0.068 | [2] -0.041 | [3] -0.005 | [4] -0.039 | [5] 0.024 | [6] -0.028 | [7] 0.051 | [8] 0.034 | IRAK-1-4 Inhibitor I 0.029 | ibrutinib -0.004 | [9] 0.012 | ralimetinib -0.007 | [10] -0.02 | [11] -0.019 | [12] -0.005 | [13] 0 | [14] -0.004 | [15] -0.027 | [16] -0.005

NDUFA10 (UniProt O95299)
inactive: erlotinib 0.045 | [1] 0.022 | [2] -0.064 | [3] 0.02 | [4] 0.236 | [5] -0.018 | [6] -0.025 | [7] 0.012 | [8] 0.017 | IRAK-1-4 Inhibitor I -0.032 | ibrutinib -0.059 | [9] 0.083 | ralimetinib 0.008 | [10] 0 | [11] -0.051 | [12] 0.08 | [13] 0.064 | [14] -0.052 | [15] 0.058 | [16] -0.054

NFAT5 isoform 5 (UniProt O94916)
inactive: erlotinib -0.06 | [1] -0.012 | [2] 0.016 | [3] -0.036 | [4] 0.049 | [5] -0.008 | [6] -0.012 | [7] -0.006 | [8] 0.02 | IRAK-1-4 Inhibitor I 0.047 | ibrutinib -0.027 | [9] -0.029 | ralimetinib -0.017 | [10] 0.129 | [11] 0.003 | [12] 0.112 | [13] -0.008 | [14] -0.081 | [15] -0.004 | [16] 0.032

NDST2 (UniProt P52849)
inactive: erlotinib 0.063 | [1] -0.019 | [2] -0.096 | [3] -0.048 | [4] -0.163 | [5] -0.073 | [6] -0.007 | [7] -0.239 | [8] 0.109 | IRAK-1-4 Inhibitor I -0.005 | ibrutinib 0.003 | [9] 0.055 | ralimetinib 0.025 | [10] 0.048 | [11] 0.016 | [12] 0.002 | [13] -0.026 | [14] -0.028 | [15] 0.019 | [16] -0.075

NKAP (UniProt Q8N5F7)
inactive: erlotinib 0.13 | [1] -0.217 | [2] 0.018 | [3] 0.016 | [4] -0.11 | [5] -0.009 | [6] -0.106 | [7] 0.163 | [8] 0.058 | IRAK-1-4 Inhibitor I 0.012 | ibrutinib 0.064 | [9] -0.2 | ralimetinib 0.035 | [10] -0.028 | [11] 0.017 | [12] 0.074 | [13] 0.02 | [14] 0.054 | [15] -0.011 | [16] 0.086

NENF (UniProt Q9UMX5)
inactive: erlotinib -0.019 | [1] 0.03 | [2] 0.051 | [3] -0.008 | [4] -0.027 | [5] 0 | [6] 0 | [7] -0.007 | [8] 0.02 | IRAK-1-4 Inhibitor I 0.012 | ibrutinib 0.124 | [9] 0.005 | ralimetinib 0.022 | [10] -0.045 | [11] -0.027 | [12] -0.004 | [13] -0.022 | [14] 0.021 | [15] -0.003 | [16] 0.002
